Patent US20040077828A1
No constants are given. Whether binding was seen depends on the method and setting. Some results given as binding are weak or reduced against the parent protein; the word gives no strength.

What was measured:
[1] = molecular target: T1, bacterially expressed CRD of sFRP-1 (human) (UniProt Q8N474); experiment: ELISA, soluble RANKL on coated wells
T1 sequence: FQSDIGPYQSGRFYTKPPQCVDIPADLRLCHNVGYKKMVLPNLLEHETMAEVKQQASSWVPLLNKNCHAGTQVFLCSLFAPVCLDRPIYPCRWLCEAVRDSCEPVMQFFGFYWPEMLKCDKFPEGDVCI

[2] = molecular target: T1, bacterially expressed CRD of sFRP-1 (human); experiment: ELISA, soluble RANKL on CRD-coated wells
[3] = molecular target: T1, bacterially expressed CRD of sFRP-1 (human); experiment: ELISA, soluble RANKL on CRD-coated wells, Scatchard plot
[4] = molecular target: T2, human sFRP-Δ1-M/H (Δ1 derivative of sFRP-1) (human); experiment: ELISA, soluble RANKL on wells coated with sFRP-1 deletion mutants (FIG. 12)
T2 sequence: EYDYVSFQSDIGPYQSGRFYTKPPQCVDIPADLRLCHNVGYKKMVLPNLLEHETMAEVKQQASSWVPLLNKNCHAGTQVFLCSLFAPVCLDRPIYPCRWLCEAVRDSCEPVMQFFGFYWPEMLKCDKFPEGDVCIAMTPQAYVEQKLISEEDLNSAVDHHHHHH

[5] = molecular target: T1, bacterially expressed CRD of sFRP-1 (human); experiment: ELISA: soluble RANKL on wells coated with bacterially expressed CRD of sFRP-1
[6] = molecular target: T2, human sFRP-Δ1-M/H (Δ1 derivative of sFRP-1) (human); experiment: ELISA: wells coated with sFRP-1 or derivative, incubated with soluble RANKL, bound RANKL detected; triplicates
[7] = molecular target: T3, human sFRP-Δ3-M/H (Δ3 derivative of sFRP-1) (human); experiment: as above
T3 sequence: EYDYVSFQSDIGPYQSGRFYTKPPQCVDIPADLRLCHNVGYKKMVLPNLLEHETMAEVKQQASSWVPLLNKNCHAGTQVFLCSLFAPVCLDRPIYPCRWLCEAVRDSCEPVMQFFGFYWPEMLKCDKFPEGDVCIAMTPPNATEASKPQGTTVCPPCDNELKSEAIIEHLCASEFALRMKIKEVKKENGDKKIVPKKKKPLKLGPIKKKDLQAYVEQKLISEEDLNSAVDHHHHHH

Δ2-H/M = molecular target: T4, Δ2-H/M; experiment: as above
T4 sequence (single chain): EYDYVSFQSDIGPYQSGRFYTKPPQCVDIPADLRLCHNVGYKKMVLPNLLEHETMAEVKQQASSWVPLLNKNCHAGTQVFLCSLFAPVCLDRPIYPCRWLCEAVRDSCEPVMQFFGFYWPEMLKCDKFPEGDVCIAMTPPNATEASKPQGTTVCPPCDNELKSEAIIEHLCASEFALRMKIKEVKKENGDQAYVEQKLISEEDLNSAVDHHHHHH

[8] = molecular target: T5, recombinant soluble RANKL (PeproTech) (Homo sapiens (Human)) (UniProt O14788); experiment: ELISA
T5 sequence: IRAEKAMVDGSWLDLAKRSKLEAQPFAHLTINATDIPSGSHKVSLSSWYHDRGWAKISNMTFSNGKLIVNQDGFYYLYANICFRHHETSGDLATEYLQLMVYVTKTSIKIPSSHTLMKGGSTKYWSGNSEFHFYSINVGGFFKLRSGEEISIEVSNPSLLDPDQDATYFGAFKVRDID

Measured: binding

B1: recombinant soluble RANKL (PeproTech) (ligand)
chain: IRAEKAMVDGSWLDLAKRSKLEAQPFAHLTINATDIPSGSHKVSLSSWYHDRGWAKISNMTFSNGKLIVNQDGFYYLYANICFRHHETSGDLATEYLQLMVYVTKTSIKIPSSHTLMKGGSTKYWSGNSEFHFYSINVGGFFKLRSGEEISIEVSNPSLLDPDQDATYFGAFKVRDID
not listed: [8]
binds: all other assays above

B2: recombinant mouse sFRP-2 (protein, UniProt P97299 25-295, looked up)
chain: LFLFGQPDFSYKRSNCKPIPANLQLCHGIEYQNMRLPNLLGHETMKEVLEQAGAWIPLVMKQCHPDTKKFLCSLFAPVCLDDLDETIQPCHSLCVQVKDRCAPVMSAFGFPWPDMLECDRFPQDNDLCIPLASSDHLLPATEEAPKVCEACKTKNEDDNDIMETLCKNDFALKIKVKEITYINRDTKIILETKSKTIYKLNGVSERDLKKSVLWLKDSLQCTCEEMNDINAPYLVMGQKQGGELVITSVKRWQKGQREFKRISRSIRKLQC
binds: [8]
